Results are given in words; binding and its absence hold for the method and conditions named. Some binding calls cover weakened binding; strength is not graded here.
B1: 274B53 (designed binder)
chain: NTHFIVVHGSEDAAQLAEELVREISKKEGTEVRFEKKDGLLSIEVKNLSEERQREIQKALQLVQDVANAERVVRERPGSNLAKKALEIILRAAEELAKLDLKASLKAAVRAAEKVVREQPGSNLAKKALEIILRAAEELAKLPDPEALKEAVKAAEKVVREQPGSELAKKALEIIERAAEELKKSPDPEAQKEAKKAEQKVREESGSHHWGSGLNDIFEAQKIEWHEGSHHHHHH
notes: also called LHD274B DHR53 stop
B2: LHD274 chainB (designed binder)
chain: NTHFIVVHGSEEARQRAEEYVRRISKKEGTEVRFEKKDGLLSIEVKNLSEERQREIQEYLQRVQK
B3: LHD101 chainB (designed binder)
chain: GRQEKVLKSIEETVRKMGVTMETHRSGNEVKVVIKGLHESQQEQLLEDVLRTAEKQGVRVRIRFKGDTVTIVVRE
notes: also called LHD101B

molecular target: DFA-GFP; assay: SEC of mixed components; trimer listed in Table 6

| Binder | binding |
| --- | --- |
| B1 | binds |
| B2 | binds |
| B3 | binds |

— US20240368233A1 (University of Washington, published 2024)
